This passage reports binding results from publication PMC9484707.

Chains of the proteins cited; added tags and fusions are not shown.
UniProt Q62210: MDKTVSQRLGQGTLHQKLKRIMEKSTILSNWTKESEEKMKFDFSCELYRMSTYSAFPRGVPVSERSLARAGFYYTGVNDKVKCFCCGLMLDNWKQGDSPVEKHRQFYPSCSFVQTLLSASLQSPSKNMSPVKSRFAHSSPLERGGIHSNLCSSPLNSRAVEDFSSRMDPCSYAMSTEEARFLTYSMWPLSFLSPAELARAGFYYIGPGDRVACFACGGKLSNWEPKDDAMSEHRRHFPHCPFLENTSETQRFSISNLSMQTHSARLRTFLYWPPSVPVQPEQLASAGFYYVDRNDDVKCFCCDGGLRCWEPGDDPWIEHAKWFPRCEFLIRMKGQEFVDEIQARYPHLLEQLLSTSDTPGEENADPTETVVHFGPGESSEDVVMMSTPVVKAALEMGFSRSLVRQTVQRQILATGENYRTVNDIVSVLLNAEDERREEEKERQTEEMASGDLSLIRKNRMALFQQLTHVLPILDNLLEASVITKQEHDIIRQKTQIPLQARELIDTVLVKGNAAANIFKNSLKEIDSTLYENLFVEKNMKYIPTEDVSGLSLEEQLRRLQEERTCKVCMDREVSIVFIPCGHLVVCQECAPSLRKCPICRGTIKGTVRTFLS
UniProt Q9ET26: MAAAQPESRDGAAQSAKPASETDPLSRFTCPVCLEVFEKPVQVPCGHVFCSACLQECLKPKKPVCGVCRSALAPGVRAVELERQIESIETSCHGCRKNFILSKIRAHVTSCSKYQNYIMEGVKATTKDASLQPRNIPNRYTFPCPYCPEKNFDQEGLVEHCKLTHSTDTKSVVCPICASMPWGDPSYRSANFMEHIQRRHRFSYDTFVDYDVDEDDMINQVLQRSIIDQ

Experiment [1] deals with T1, tumor necrosis factor receptor associated factor (TRAF) 3, overexpressed in HEK293T cells (UniProt Q60803).
T1 sequence: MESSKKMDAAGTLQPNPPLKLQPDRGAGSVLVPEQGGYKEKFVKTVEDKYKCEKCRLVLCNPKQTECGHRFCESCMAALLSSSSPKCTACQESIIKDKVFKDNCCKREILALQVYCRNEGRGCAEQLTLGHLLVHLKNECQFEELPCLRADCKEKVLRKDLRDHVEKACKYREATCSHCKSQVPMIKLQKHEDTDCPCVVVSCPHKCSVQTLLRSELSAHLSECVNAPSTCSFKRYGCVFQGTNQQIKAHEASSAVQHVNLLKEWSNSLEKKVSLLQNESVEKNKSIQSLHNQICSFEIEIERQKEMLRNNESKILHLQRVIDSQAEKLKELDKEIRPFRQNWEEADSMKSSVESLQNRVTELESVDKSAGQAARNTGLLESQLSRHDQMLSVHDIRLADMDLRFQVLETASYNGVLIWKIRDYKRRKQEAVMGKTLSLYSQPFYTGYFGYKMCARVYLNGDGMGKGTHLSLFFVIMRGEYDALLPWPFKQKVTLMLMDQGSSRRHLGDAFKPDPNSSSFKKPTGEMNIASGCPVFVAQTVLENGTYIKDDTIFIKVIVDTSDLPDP
Nature of the experiment: co-IP; HEK293T cells transfected with the indicated plasmids (PEI, 48 h); lysates incubated with the indicated gels at 4 °C overnight, washed three times with cell lysis buffer; immunoblot.

Experiment [2] deals with extracellular fibrinogen-binding protein (Efb), overexpressed in HEK293T cells (Staphylococcus aureus) (UniProt A6QG59). The experiment is described as above.
Experiment [3] deals with T2, TRAF3, endogenous in MH-S alveolar macrophages (mouse (endogenous in MH-S)) (UniProt Q60803).
T2 sequence: T1 sequence
Nature of the experiment: co-IP; MH-S macrophages infected with S. aureus strains (MOI = 25) for the indicated times; lysates incubated with the indicated gels at 4 °C overnight; immunoblot.

For experiment [4], the target named is Flag-Efb released by the intracellular S. aureus complementation strain ΔEfb + Flag − Efb (Staphylococcus aureus Newman) (UniProt A6QG59). The description is as above.
In experiment [5] the target is T3, purified TRAF3 (GST-pull down assay) (UniProt Q60803).
T3 sequence: T1 sequence
Kind of experiment: pull-down; in vitro GST-pull down with purified Efb and TRAF3; both purified.

These are yes or no findings as the source states them, for the method shown. For some assays here: In cells and extracts the contact can be indirect. Some results given as binding are weak or reduced against the parent protein; the word gives no strength. For some assays here: Where a sequence is shown, tags or fusion partners need not be part of it.

Consider “cellular-inhibitor-of-apoptosis-1 (cIAP1), overexpressed in HEK293T cells (from UniProt Q62210 1-612)”, for which the binding entry in experiment [1] is listed as “binds”.

With “RING finger protein 114 (RNF114), overexpressed in HEK293T cells (from UniProt Q9ET26 1-229) (enzyme)”, the binding result in experiment [2] was “binds”.

As to “cIAP1, endogenous in MH-S alveolar macrophages (from UniProt Q62210 1-612)”, the binding entry in experiment [3] is on record as “binds”.

For the substance “Flag-Efb released by the intracellular S. aureus complementation strain ΔEfb + Flag − Efb (from UniProt A6QG59 30-165)”, the binding entry in experiment [3] is on record as “binds”.

Regarding “RNF114, endogenous in MH-S alveolar macrophages (from UniProt Q9ET26 1-229) (enzyme)”, in experiment [4], the binding entry is given as “binds”.

On to “purified Efb (GST-pull down assay) (from UniProt A6QG59 30-165)”, for which the binding entry in experiment [5] is listed as “binds”.

“Efb released by the intracellular S. aureus Newman strain (from UniProt A6QG59 30-165)”: the binding entry in experiment [3] is “binds”.

As for “extracellular fibrinogen-binding protein (Efb), overexpressed in HEK293T cells (from UniProt A6QG59 30-165)”, in experiment [1], the binding entry was “binds”.
